PubChem BioAssay AID493014 (National Center for Advancing Translational Sciences (NCATS), 2011)
The list shows a part of the results. Shown are side measurements of this screen, not its main read-out; they come without a call. Most of these compounds were active or inconclusive in the main read-out, so they are no random draw. Words in brackets tell the shape of the fitted curve; partial curves, single points and poor fits give uncertain potencies.

Assay: qHTS Assay to Find Inhibitors of Chronic Active B-Cell Receptor Signaling
Conditions: ABC-DLBCL IkBa-CBG/CBR reporter, luminescence ratio (green luciferase fused to IkBa over red control in TMD8 lymphoma cells), 4 h
Procedure, shortened: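 Cell line TMD8 (human ABC DLBCL), stably expressing tet-inducible CBG68-IkBa fusion and CBR; IMDM/0.5% FBS; cpd up to 46 uM; dox induction, 4 h, 37C/5% CO2; dual luminescence; green/red ratio; MG132 control.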

[1] = measured here: CBR red luminescence, cell number
[2] = measured here: IkBa-CBG green luminescence

SMILES	AC50 [1]	AC50 [2]
COc1ccccc1NS(=O)(=O)c1cc(C(=O)NCC(c2ccc(F)cc2)N2CCOCC2)ccc1C (stereo not drawn)	4.61 µM [falling, full curve]	–
O=C(c1cc(-c2ccc(F)cc2)on1)N1CCCc2ccccc21	10 µM [falling, partial curve, poor fit]	–
CCOC(=O)C1(CC2CCCCO2)CCN(Cc2cc3ccccc3[nH]2)CC1 (stereo not drawn)	1.26 µM [falling, partial curve, poor fit]	–
COC(=O)c1ccccc1NC(=O)CN(Cc1ccccc1)S(C)(=O)=O	29.1 µM [rising, single point]	–
C/C(=N/NC(=O)c1ccc(C)s1)c1cccc(NC(=O)COc2ccc(Cl)cc2Cl)c1	0.651 µM [rising, full curve, poor fit]	–
CCCNC(=O)c1ccc2c(=O)c(O)c(C)[nH]c2c1	35.5 µM [rising, single point]	–
COC(=O)c1sc2nc[nH]c(=O)c2c1C	1.3 µM [falling, partial curve, poor fit]	–
CC(C)(C)OC(=O)NCCCCCNC(=O)c1[nH]cnc1C(=O)Nc1nccs1	–	1.46 µM [rising, full curve, poor fit]
Cn1ccs/c1=N\S(=O)(=O)c1ccc(F)cc1	0.0731 µM [falling, full curve, poor fit]	–
Cc1ccccc1CSCCNC(=S)Nc1ccccc1	12.6 µM [rising, single point]	–
Cc1cccc(Oc2c([N+](=O)[O-])c(=O)n(C)c3ccccc23)c1	35.5 µM [rising, single point]	35.5 µM [falling, single point]
Cn1c(SCC(=O)NCC2CCCO2)ncc(C(=O)Nc2ccccc2)c1=O (stereo not drawn)	2.59 µM [falling, full curve, poor fit]	–
O=C(CC(Sc1ccc(Br)cc1)C(=O)O)c1ccc(Br)cc1 (stereo not drawn)	12.6 µM [falling, partial curve]	–
O=C(Nc1ccncc1)c1ccc2ccccc2c1	0.794 µM [falling, full curve, poor fit]	–
CN=C(Nc1cccc(Cl)c1)SC1CC(=O)N(c2ccc(OC)cc2)C1=O (stereo not drawn)	0.794 µM [rising, partial curve, poor fit]	–
Cn1c(SCC(=O)NNC(=S)Nc2ccccc2)nnc1-c1ccccc1	1.41 µM [rising, partial curve, poor fit]	–
N#C/C(=C/c1ccc(N2CCOCC2)o1)C(=O)Nc1ccccc1	3.98 µM [falling, partial curve]	–
CC1Cc2ccccc2N1C(=O)CN1C(=O)C(=O)N(Cc2ccccc2)C1=O (stereo not drawn)	0.164 µM [falling, full curve, poor fit]	–
C[C@@H]1COC(=O)[C@@H](CC(=O)OC(C)(C)C)C/C=C\C[C@@H](CC(=O)N[C@@H](CO)Cc2ccccc2)C(=O)N1	20.6 µM [rising, partial curve, poor fit]	–
O=C(CP(=O)(c1ccccc1)c1ccccc1)Nc1cccc(CP(=O)(c2ccccc2)c2ccccc2)c1	25.1 µM [falling, single point]	–

SMILES	AC50 [1]	AC50 [2]
Cc1cccc(NC(=O)CSc2nc3c([nH]c4ccccc43)c(=O)n2C)c1	0.251 µM [falling, full curve, poor fit]	–
Cc1ccc(CN(C(=O)COc2ccc(C)c(C)c2)C2CCS(=O)(=O)C2)o1 (stereo not drawn)	17.8 µM [falling, single point]	–
CC(=O)Nc1sc(N/N=C\c2ccco2)nc1-c1cccs1	18.4 µM [falling, single point]	–
O=C(OCc1cncs1)c1ccccc1Cl	35.5 µM [rising, partial curve, poor fit]	–
CC1CCCC(C)N1C(=O)CSc1ccc(-c2ccc3c(c2)OCCO3)nn1 (stereo not drawn)	14.1 µM [falling, partial curve, poor fit]	–
CCN(CC)CCNC(=O)c1ccc2c(c1NCCO)C(=O)c1ccccc1C2=O	–	7.08 µM [rising, partial curve, poor fit]
O=c1[nH]c(-c2ccccn2)nc2sc(-c3ccccc3)cc12	3.55 µM [falling, full curve, poor fit]	2.82 µM [falling, full curve]
COc1ccc(NC(=O)c2cn(-c3ccccc3)nc2SC)cc1	5.62 µM [falling, full curve, poor fit]	–
O=C(NCCn1cc(SCc2ccc(F)cc2)c2ccccc21)c1ccccc1F	29.1 µM [falling, single point]	–
C/C(=N\NC(=S)NC1CCCCC1)c1ccc(O)cc1	35.5 µM [falling, single point]	25.1 µM [falling, single point]
O=S(=O)(CCN1C=CC(C(F)(F)F)=NCC1)c1ccc(F)cc1	35.5 µM [falling, single point]	–
CCn1nc(NC(=O)c2ccco2)c2cc3ccccc3nc21	5.62 µM [falling, full curve]	–
CC(C)CNc1c(N)n(CC(C)C)c(=O)[nH]c1=O	0.1 µM [rising, full curve, poor fit]	–
CN(CC(=O)Nc1nc2ccc(F)cc2s1)S(=O)(=O)c1ccc(Cl)cc1	29.1 µM [falling, single point]	25.9 µM [rising, partial curve, poor fit]
CC1(c2ccc(Cl)cc2Cl)NC(=O)N(CC(=O)Nc2ccc3[nH]c(=O)[nH]c3c2)C1=O (stereo not drawn)	20.6 µM [rising, partial curve, poor fit]	–
CC1CCN(CC2C(=O)O[C@@H]3C[C@@]4(C)CCC[C@H](C)C4=C[C@H]23)CC(C)(C)C1 (stereo partly drawn)	10 µM [falling, partial curve]	–
S=c1nc2ccccc2c2nc(-c3ccccc3)[nH]n12	11.2 µM [falling, partial curve, poor fit]	1 µM [falling, full curve]
Cc1oc2c(CN3CCOCC3)c(O)ccc2c(=O)c1-c1ccccc1	2.82 µM [falling, partial curve]	–
COC(=O)CNC(c1ccccc1)c1cc(Br)ccc1NC(=O)CCN1CCOCC1 (stereo not drawn)	23.1 µM [falling, single point]	–
C/C(Cc1ccccc1)=N\NC(=O)c1cccnc1	25.9 µM [falling, single point]	–

SMILES	AC50 [1]	AC50 [2]
FC(F)(F)c1cc(C(F)(F)F)c2ccc(Oc3ccccc3)nc2n1	3.98 µM [rising, full curve, poor fit]	–
CC[C@]12c3[nH]c4cc(CCC(=O)N(C)C)ccc4c3CCN1C(=O)[C@@H](CC(=O)NC(C)(C)C)C[C@@H]2C(=O)N1CCN(C(=O)c2ccco2)CC1	20.6 µM [rising, single point]	20.6 µM [falling, partial curve]
O=C1C(Cl)=C(NCCN2CCCCC2)C(=O)c2ccccc21	6.31 µM [falling, partial curve]	8.91 µM [rising, partial curve, poor fit]
O=C(O)c1cccc(NC(=S)NC(=O)C(c2ccccc2)c2ccccc2)c1	5.01 µM [rising, full curve, poor fit]	11.2 µM [falling, partial curve, poor fit]
CCOC(=O)c1sc(NC(=O)CS(=O)(=O)c2ccc(C)cc2)nc1C	17.8 µM [falling, single point]	–
COc1ccccc1NC(=O)Nc1nc(CC(=O)N2CCN(c3ccccc3)CC2)cs1	13 µM [falling, single point]	–
N#C/C(=C\N1CCN(Cc2ccc3c(c2)OCO3)CC1)c1nc2ccccc2s1	10 µM [falling, partial curve, poor fit]	–
O=C1/C(=C/c2cccnc2)SC(=S)N1C1CCS(=O)(=O)C1 (stereo not drawn)	6.51 µM [falling, full curve, poor fit]	–
CCOc1ccc(Br)cc1S(=O)(=O)N1CCSC1	31.6 µM [rising, single point]	–
Cc1[nH][nH]c(=O)c1N=Nc1ccccc1C#N	2.24 µM [falling, full curve]	–
O=C(CN1CCCCCC1)Nc1ccccc1Cl	14.1 µM [falling, partial curve]	–
CCN(CC)CCNc1nc(SC)nc2sc3c(c12)CCN(C)C3	10 µM [falling, partial curve]	–
O=C(N/N=C/c1ccccn1)c1cc(-c2ccccc2)nc2ccccc12	12.6 µM [rising, partial curve]	11.2 µM [falling, partial curve, poor fit]
Fc1ccc(Nc2ncnc3sccc23)cc1	2.82 µM [falling, full curve, poor fit]	–
CCSc1nnc(-c2ccc(Cl)cc2Cl)o1	10 µM [rising, partial curve]	–
C=CCc1cccc(CNc2c(C)n(C)n(-c3ccccc3)c2=O)c1O	23.1 µM [falling, partial curve, poor fit]	–
CCn1c(=O)cc(SCC(=O)N(C)Cc2ccccc2)c2ccccc21	6.51 µM [rising, single point]	–
Cc1ccc(S(=O)(=O)N(C)c2ccc(OCC(=O)Nc3nc(-c4ccccc4)cs3)cc2)cc1	4.61 µM [rising, full curve, poor fit]	–
COc1ccc(CCNC(=O)CCc2cn(C)c3ccccc23)c(OC)c1	12.6 µM [rising, single point]	–

Fetched by structure from above (3):
SMILES	AC50 [1]	AC50 [2]
FC(F)(F)c1cc(C(F)(F)F)c2ccc(Oc3ccccc3)nc2n1	3.98 µM [rising, full curve, poor fit]	–
O=C1/C(=C/c2cccnc2)SC(=S)N1C1CCS(=O)(=O)C1 (stereo not drawn)	6.51 µM [falling, full curve, poor fit]	–
Cc1ccc(S(=O)(=O)N(C)c2ccc(OCC(=O)Nc3nc(-c4ccccc4)cs3)cc2)cc1	4.61 µM [rising, full curve, poor fit]	–
